Test results as given in paper PMC8976915.

B1: eIF5b (protein, UniProt O60841 1-1220)
chain: MGKKQKNKSEDSTKDDIDLDALAAEIEGAGAAKEQEPQKSKGKKKKEKKKQDFDEDDILKELEELSLEAQGIKADRETVAVKPTENNEEEFTSKDKKKKGQKGKKQSFDDNDSEELEDKDSKSKKTAKPKVEMYSGSDDDDDFNKLPKKAKGKAQKSNKKWDGSEEDEDNSKKIKERSRINSSGESGDESDEFLQSRKGQKKNQKNKPGPNIESGNEDDDASFKIKTVAQKKAEKKERERKKRDEEKAKLRKLKEKEELETGKKDQSKQKESQRKFEEETVKSKVTVDTGVIPASEEKAETPTAAEDDNEGDKKKKDKKKKKGEKEEKEKEKKKGPSKATVKAMQEALAKLKEEEERQKREEEERIKRLEELEAKRKEEERLEQEKRERKKQKEKERKERLKKEGKLLTKSQREARARAEATLKLLQAQGVEVPSKDSLPKKRPIYEDKKRKKIPQQLESKEVSESMELCAAVEVMEQGVPEKEETPPPVEPEEEEDTEDAGLDDWEAMASDEETEKVEGNKVHIEVKENPEEEEEEEEEEEEDEESEEEEEEEGESEGSEGDEEDEKVSDEKDSGKTLDKKPSKEMSSDSEYDSDDDRTKEERAYDKAKRRIEKRRLEHSKNVNTEKLRAPIICVLGHVDTGKTKILDKLRHTHVQDGEAGGITQQIGATNVPLEAINEQTKMIKNFDRENVRIPGMLIIDTPGHESFSNLRNRGSSLCDIAILVVDIMHGLEPQTIESINLLKSKKCPFIVALNKIDRLYDWKKSPDSDVAATLKKQKKNTKDEFEERAKAIIVEFAQQGLNAALFYENKDPRTFVSLVPTSAHTGDGMGSLIYLLVELTQTMLSKRLAHCEELRAQVMEVKALPGMGTTIDVILINGRLKEGDTIIVPGVEGPIVTQIRGLLLPPPMKELRVKNQYEKHKEVEAAQGVKILGKDLEKTLAGLPLLVAYKEDEIPVLKDELIHELKQTLNAIKLEEKGVYVQASTLGSLEALLEFLKTSEVPYAGINIGPVHKKDVMKASVMLEHDPQYAVILAFDVRIERDAQEMADSLGVRIFSAEIIYHLFDAFTKYRQDYKKQKQEEFKHIAVFPCKIKILPQYIFNSRDPIVMGVTVEAGQVKQGTPMCVPSKNFVDIGIVTSIEINHKQVDVAKKGQEVCVKIEPIPGESPKMFGRHFEATDILVSKISRQSIDALKDWFRDEMQKSDWQLIVELKKVFEII
B2: SRSF2 (protein, UniProt Q01130 1-221)
chain: MSYGRPPPDVEGMTSLKVDNLTYRTSPDTLRRVFEKYGRVGDVYIPRDRYTKESRGFAFVRFHDKRDAEDAMDAMDGAVLDGRELRVQMARYGRPPDSHHSRRGPPPRRYGGGGYGRRSRSPRRRRRSRSRSRSRSRSRSRSRYSRSKSRSRTRSRSRSTSKSRSARRSKSKSSSVSRSRSRSRSRSRSRSPPPVSKRESKSRSRSKSPPKSPEEEGAVSS
B3: SRSF7 (protein, UniProt Q16629 1-238)
chain: MSRYGRYGGETKVYVGNLGTGAGKGELERAFSYYGPLRTVWIARNPPGFAFVEFEDPRDAEDAVRGLDGKVICGSRVRVELSTGMPRRSRFDRPPARRPFDPNDRCYECGEKGHYAYDCHRYSRRRRSRSRSRSHSRSRGRRYSRSRSRSRGRRSRSASPRRSRSISLRRSRSASLRRSRSGSIKGSRYFQSPSRSRSRSRSISRPRSSRSKSRSPSPKRSRSPSGSPRRSASPERMD
B4: G3BP2 (protein, UniProt Q9UN86 1-482)
chain: MVMEKPSPLLVGREFVRQYYTLLNKAPEYLHRFYGRNSSYVHGGVDASGKPQEAVYGQNDIHHKVLSLNFSECHTKIRHVDAHATLSDGVVVQVMGLLSNSGQPERKFMQTFVLAPEGSVPNKFYVHNDMFRYEDEVFGDSEPELDEESEDEVEEEQEERQPSPEPVQENANSGYYEAHPVTNGIEEPLEESSHEPEPEPESETKTEELKPQVEEKNLEELEEKSTTPPPAEPVSLPQEPPKAFSWASVTSKNLPPSGTVSSSGIPPHVKAPVSQPRVEAKPEVQSQPPRVREQRPRERPGFPPRGPRPGRGDMEQNDSDNRRIIRYPDSHQLFVGNLPHDIDENELKEFFMSFGNVVELRINTKGVGGKLPNFGFVVFDDSEPVQRILIAKPIMFRGEVRLNVEEKKTRAARERETRGGGDDRRDIRRNDRGPGGPRGIVGGGMMRDRDGRGPPPRGGMAQKLGSGRGTGQMEGRFTGQRR
B5: DDX1 (protein, UniProt Q92499 1-740)
chain: MAAFSEMGVMPEIAQAVEEMDWLLPTDIQAESIPLILGGGDVLMAAETGSGKTGAFSIPVIQIVYETLKDQQEGKKGKTTIKTGASVLNKWQMNPYDRGSAFAIGSDGLCCQSREVKEWHGCRATKGLMKGKHYYEVSCHDQGLCRVGWSTMQASLDLGTDKFGFGFGGTGKKSHNKQFDNYGEEFTMHDTIGCYLDIDKGHVKFSKNGKDLGLAFEIPPHMKNQALFPACVLKNAELKFNFGEEEFKFPPKDGFVALSKAPDGYIVKSQHSGNAQVTQTKFLPNAPKALIVEPSRELAEQTLNNIKQFKKYIDNPKLRELLIIGGVAARDQLSVLENGVDIVVGTPGRLDDLVSTGKLNLSQVRFLVLDEADGLLSQGYSDFINRMHNQIPQVTSDGKRLQVIVCSATLHSFDVKKLSEKIMHFPTWVDLKGEDSVPDTVHHVVVPVNPKTDRLWERLGKSHIRTDDVHAKDNTRPGANSPEMWSEAIKILKGEYAVRAIKEHKMDQAIIFCRTKIDCDNLEQYFIQQGGGPDKKGHQFSCVCLHGDRKPHERKQNLERFKKGDVRFLICTDVAARGIDIHGVPYVINVTLPDEKQNYVHRIGRVGRAERMGLAISLVATEKEKVWYHVCSSRGKGCYNTRLKEDGGCTIWYNEMQLLSEIEEHLNCTISQVEPDIKVPVDEFDGKVTYGQKRAAGGGSYKGHVDILAPTVQELAALEKEAQTSFLHLGYLPNQLFRTF

biological target: GFP-G3BP1 (Ras-GTPase activating SH3 domain-binding protein 1) (UniProt Q13283); experiment: affinity purification with mass spectrometry; U2OS GFP-G3BP1 cells treated with VFS for 1 h; granule-enriched fraction made by sequential centrifugation; IP with anti-GFP antibody (control IgG) and Protein A Dynabeads at 4°C; washes with SG lysis buffer + 2 M urea, + 300 mM potassium acetate, then TE; LC-MS/MS, MaxQuant; hits at ≥1 log2-fold over control IgG

Row | Binder | binding
1 | B1 | binds
2 | B2 | binds
3 | B3 | binds
4 | B4 | binds
5 | B5 | binds

No constants are given. Whether binding was seen depends on the method and setting. In cells and extracts the contact can be indirect. Here binding means that the protein was enriched with, or labelled near, the bait; the list need not be complete.
